Reference: PMC8579195
No constants are given. Whether binding was seen depends on the method and setting. In cells and extracts the contact can be indirect. These calls come from enrichment with a bait or labelling near it, and not all partners need be listed. Sequences can lack the tags named with a protein.

Target: T1, MARCH5-PafA-Myc (human) (UniProt Q9NX47)
T1 sequence: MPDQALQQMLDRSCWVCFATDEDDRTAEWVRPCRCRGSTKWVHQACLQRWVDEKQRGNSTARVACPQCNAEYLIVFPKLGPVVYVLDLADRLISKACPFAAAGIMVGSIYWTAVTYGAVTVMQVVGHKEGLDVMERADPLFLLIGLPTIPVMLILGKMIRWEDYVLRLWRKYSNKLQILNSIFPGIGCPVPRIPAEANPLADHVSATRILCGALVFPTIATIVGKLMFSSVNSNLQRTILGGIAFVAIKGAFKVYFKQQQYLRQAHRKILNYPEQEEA
Assay: proximity labelling; PUP-IT: MARCH5-PafA-Myc in iPUP Jurkat cells, biotin 4 μM and Dox 2 μg/ml for 48 h; denatured lysate (8 M urea), streptavidin beads, on-bead digestion, MS; control iPUP cells without MARCH5-PafA-Myc; three biological repeats

B1: PEX3 (endogenous, Jurkat) (protein, UniProt P56589 1-373)
chain: MLRSVWNFLKRHKKKCIFLGTVLGGVYILGKYGQKKIREIQEREAAEYIAQARRQYHFESNQRTCNMTVLSMLPTLREALMQQLNSESLTALLKNRPSNKLEIWEDLKIISFTRSTVAVYSTCMLVVLLRVQLNIIGGYIYLDNAAVGKNGTTILAPPDVQQQYLSSIQHLLGDGLTELITVIKQAVQKVLGSVSLKHSLSLLDLEQKLKEIRNLVEQHKSSSWINKDGSKPLLCHYMMPDEETPLAVQACGLSPRDITTIKLLNETRDMLESPDFSTVLNTCLNRGFSRLLDNMAEFFRPTEQDLQHGNSMNSLSSVSLPLAKIIPIVNGQIHSVCSETPSHFVQDLLTMEQVKDFAANVYEAFSTPQQLEK
Question: Which binding does the source give for B1 here?
Answer: binds
